For one substance, binding results are on record in publication doi:10.1101/2019.12.24.888065.

The chains behind the UniProt entries cited, without tags or fusion partners.
UniProt Q9VEZ3: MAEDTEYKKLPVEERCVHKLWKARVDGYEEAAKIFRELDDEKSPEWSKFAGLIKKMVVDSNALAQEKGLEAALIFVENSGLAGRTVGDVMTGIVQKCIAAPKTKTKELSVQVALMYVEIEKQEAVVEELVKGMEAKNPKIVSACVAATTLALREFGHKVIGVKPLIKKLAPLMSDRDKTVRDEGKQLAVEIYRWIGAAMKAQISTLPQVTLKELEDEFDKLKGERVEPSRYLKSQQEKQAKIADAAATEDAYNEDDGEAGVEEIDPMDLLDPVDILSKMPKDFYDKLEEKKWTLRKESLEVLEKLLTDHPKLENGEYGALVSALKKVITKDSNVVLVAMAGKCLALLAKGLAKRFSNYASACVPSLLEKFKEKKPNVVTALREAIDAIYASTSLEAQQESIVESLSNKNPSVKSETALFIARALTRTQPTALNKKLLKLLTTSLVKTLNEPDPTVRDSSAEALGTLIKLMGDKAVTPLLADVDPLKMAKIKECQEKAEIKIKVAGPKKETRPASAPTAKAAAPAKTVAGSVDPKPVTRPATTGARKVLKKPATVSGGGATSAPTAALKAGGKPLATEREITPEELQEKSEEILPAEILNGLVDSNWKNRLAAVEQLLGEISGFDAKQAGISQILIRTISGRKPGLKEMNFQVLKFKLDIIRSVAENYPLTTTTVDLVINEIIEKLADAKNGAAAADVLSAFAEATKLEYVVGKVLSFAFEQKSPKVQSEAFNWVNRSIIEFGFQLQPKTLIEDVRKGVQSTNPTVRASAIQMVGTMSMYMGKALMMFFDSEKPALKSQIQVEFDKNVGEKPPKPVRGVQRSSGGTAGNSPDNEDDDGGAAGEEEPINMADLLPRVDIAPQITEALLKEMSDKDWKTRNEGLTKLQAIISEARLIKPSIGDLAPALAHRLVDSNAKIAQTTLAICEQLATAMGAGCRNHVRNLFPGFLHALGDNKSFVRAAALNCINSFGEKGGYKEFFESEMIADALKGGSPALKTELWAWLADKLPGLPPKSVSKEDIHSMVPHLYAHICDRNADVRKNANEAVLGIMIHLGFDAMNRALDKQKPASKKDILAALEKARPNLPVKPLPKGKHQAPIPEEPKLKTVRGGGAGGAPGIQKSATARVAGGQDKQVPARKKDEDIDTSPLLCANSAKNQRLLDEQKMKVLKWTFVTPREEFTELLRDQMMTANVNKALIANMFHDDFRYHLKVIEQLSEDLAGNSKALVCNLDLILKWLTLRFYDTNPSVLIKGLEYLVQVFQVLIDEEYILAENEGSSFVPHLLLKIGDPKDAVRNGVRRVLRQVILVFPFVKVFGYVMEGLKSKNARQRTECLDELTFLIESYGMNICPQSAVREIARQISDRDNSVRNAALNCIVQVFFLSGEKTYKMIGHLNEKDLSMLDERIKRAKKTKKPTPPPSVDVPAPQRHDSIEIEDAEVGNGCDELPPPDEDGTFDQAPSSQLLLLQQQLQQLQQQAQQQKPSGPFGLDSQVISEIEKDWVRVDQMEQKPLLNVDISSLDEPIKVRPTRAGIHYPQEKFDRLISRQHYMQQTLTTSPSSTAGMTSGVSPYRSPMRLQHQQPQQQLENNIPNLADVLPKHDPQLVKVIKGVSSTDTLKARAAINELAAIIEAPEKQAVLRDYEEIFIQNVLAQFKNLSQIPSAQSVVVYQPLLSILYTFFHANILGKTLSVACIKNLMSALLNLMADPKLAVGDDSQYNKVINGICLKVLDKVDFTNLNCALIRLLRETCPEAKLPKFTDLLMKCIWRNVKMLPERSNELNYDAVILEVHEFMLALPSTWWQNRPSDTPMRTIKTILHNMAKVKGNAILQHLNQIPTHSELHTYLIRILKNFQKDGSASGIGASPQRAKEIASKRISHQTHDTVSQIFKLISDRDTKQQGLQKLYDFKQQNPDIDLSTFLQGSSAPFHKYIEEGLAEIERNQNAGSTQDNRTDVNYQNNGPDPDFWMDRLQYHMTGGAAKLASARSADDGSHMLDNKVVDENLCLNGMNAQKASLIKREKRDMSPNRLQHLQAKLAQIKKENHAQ
UniProt A1ZAU8: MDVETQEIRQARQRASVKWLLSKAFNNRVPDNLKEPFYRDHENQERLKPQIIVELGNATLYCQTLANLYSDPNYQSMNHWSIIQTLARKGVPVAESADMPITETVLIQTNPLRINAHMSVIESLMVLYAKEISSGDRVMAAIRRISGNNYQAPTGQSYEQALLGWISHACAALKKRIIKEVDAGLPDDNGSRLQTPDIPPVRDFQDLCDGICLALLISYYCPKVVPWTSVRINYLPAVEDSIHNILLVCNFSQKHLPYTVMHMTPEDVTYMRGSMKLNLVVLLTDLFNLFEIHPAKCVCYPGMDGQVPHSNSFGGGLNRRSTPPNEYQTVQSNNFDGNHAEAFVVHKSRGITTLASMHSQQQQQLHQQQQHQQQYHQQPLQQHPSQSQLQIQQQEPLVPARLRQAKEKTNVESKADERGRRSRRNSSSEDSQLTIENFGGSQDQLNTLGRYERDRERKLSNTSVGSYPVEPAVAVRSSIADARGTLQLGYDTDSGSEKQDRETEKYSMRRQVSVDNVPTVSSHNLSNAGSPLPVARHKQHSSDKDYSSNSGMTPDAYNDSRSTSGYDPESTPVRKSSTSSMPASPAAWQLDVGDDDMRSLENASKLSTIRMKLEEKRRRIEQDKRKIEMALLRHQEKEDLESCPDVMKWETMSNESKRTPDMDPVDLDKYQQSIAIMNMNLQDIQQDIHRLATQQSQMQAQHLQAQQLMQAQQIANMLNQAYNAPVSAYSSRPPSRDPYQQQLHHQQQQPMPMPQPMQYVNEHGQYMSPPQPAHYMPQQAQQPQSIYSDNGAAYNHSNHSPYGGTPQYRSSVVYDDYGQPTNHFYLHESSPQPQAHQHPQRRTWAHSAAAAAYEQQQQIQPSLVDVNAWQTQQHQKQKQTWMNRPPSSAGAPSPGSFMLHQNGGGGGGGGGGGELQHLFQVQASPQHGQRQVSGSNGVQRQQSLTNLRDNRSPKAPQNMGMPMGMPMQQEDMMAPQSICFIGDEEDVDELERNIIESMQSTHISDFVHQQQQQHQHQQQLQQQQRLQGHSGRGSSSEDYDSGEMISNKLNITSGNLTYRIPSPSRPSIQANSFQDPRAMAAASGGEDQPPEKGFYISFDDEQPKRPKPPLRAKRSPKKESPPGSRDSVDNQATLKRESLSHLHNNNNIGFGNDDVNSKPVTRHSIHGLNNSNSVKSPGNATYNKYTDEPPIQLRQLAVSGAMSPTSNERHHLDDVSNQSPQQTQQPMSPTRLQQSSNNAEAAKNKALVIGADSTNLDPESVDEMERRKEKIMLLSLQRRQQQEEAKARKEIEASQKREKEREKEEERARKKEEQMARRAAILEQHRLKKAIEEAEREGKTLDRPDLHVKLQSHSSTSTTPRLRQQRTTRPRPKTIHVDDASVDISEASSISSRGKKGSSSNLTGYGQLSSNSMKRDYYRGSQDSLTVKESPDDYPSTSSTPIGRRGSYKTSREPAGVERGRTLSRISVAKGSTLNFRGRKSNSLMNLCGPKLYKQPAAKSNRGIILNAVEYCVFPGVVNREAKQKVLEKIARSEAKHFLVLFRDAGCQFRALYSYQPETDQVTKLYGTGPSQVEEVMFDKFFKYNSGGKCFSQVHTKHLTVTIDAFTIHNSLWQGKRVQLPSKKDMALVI

Results are given in words; binding and its absence hold for the method and conditions named. In cells and extracts the contact can be indirect. Some results given as binding are weak or reduced against the parent protein; the word gives no strength.

The test addresses HA-Msps (minispindles, Msps) (Drosophila) (UniProt Q9VEZ3). Kind of test: co-IP.

Regarding “Patronin (endogenous) (from UniProt A1ZAU8 1-1630)”, the binding entry is recorded as “binds”.
